# From patent publication US11579149B2, “Hippo pathway bioluminescent biosensor” (Queen's University at Kingston, priority 2017, dated 2023)
# At least one compound was matched to its structure with a doubt left.
# Test system: LATS kinase activity
# Experiment: LATS-BS under stimuli regulating Hippo signaling (in vitro luciferase assay and live cell luciferase imaging)
# Type: cell-based, human
# Conditions: cell lysates (luciferase assay) and live cells (BLI)
# Experimental: For live cell imaging, LATS-BS or a pGL3-control vector were transfected into HEK293, MDA-MB-231 or A549 cells. After 48 hours, cells were trypsinized and collected in a black, clear bottomed, 96-well plate. 150 μg/mL D-luciferin (D-Luciferin, Potassium Salt, GoldBio #LUCK-250) in media was added to each well 5-10 min before imaging. Exposure time for images was approximately 3 min/plate. Imaging was performed using a LightTools Research system (Synopsys, Ltd., Mountain View, Calif., USA) dark box and a Hamamatsu ORCA-Flash4.0 V2 digital CMOS camera over the course of 20 minutes to establish optimal peak luciferase activity. The bioluminescence of the regions of interest was analyzed for total emission flux using Image-Pro® Plus software (Media Cybernetics, Inc., Rockville, Md., USA).
# Experiments were conducted to further validate the LATS intermolecular biosensor and explore potential applications for its use. The LATS-BS responded to numerous signals reported to modulate Hippo pathway activity, including cell confluency, drugs activating Hippo signaling (Forskolin, PI3K inhibitor, PDK inhibitor, F-IBMX, and 2-deoxy-glucose) and Hippo signaling inhibitors (LPA, EGF, Insulin, S1P, and TPA). The LATS-BS is activated by LATS in various cell lines (e.g., A549, MDA-MB231). […]
compound,measurement,value
C=C[C@@]1(C)CC(=O)[C@]2(O)[C@@]3(C)[C@@H](O)CCC(C)(C)[C@@H]3[C@H](O)[C@H](OC(C)=O)[C@@]2(C)O1 [Forskolin],LATS-BS response to signals modulating Hippo pathway activity,responded
